Patent publication US20150291685A1
No constants are given. Whether binding was seen depends on the method and setting. Some binding calls cover weakened binding; strength is not graded here.

Tests used:
[1] = target: T1, S. aureus Iron regulated surface determinant H (IsdH) (Staphylococcus aureus) (UniProt Q2FXJ2); assay: competition with haptoglobin for IsdH (subunit Neat-1)
T1 sequence (looked up): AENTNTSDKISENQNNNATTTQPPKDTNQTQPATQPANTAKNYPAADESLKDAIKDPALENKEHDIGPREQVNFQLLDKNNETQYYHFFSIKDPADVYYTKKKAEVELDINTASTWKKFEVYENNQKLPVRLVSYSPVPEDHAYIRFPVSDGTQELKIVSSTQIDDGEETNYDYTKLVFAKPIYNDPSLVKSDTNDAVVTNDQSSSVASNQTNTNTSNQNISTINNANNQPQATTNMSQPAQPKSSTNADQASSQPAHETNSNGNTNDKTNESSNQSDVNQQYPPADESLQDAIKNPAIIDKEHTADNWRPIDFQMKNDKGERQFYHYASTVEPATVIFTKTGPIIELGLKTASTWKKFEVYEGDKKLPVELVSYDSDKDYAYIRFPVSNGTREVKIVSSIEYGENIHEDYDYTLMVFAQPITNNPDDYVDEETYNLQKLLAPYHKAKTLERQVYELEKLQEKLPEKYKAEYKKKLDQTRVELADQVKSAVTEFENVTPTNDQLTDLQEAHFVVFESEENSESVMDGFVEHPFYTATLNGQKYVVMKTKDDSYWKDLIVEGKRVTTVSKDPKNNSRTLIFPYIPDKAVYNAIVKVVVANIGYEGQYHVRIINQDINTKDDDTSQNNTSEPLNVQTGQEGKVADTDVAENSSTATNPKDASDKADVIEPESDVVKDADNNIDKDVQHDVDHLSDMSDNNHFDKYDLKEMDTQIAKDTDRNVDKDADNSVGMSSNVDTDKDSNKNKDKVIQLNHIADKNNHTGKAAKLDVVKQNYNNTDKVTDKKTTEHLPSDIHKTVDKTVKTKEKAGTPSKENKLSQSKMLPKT

[2] = target: T2, IsdH on S. aureus cells (Staphylococcus aureus) (UniProt Q2FXJ2); assay: staining and FACS of S. aureus after in vivo passage in mouse
T2 sequence: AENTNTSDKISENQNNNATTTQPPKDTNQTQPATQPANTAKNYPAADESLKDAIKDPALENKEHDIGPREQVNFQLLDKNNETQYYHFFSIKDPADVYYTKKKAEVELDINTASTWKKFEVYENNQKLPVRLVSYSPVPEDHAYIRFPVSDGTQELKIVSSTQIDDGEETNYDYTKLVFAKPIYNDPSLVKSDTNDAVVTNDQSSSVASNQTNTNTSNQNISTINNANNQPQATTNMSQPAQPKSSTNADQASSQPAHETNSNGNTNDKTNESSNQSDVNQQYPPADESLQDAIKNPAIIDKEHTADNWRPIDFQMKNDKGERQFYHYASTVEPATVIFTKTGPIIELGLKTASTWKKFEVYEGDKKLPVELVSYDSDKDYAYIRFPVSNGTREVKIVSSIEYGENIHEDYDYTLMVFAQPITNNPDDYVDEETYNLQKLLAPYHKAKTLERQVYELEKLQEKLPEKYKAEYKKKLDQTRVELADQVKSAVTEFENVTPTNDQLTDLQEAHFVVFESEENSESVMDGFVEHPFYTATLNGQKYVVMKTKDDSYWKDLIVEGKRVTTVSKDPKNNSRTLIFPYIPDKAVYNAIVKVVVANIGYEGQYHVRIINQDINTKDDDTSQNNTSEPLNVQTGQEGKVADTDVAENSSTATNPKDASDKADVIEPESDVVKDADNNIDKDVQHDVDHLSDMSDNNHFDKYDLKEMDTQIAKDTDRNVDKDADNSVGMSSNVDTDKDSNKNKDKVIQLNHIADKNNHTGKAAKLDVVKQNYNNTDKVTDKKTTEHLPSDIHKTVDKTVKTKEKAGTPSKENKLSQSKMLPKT

B1: mAb 1C1 (antibody, V domains shown)
VH: EVQLLESGGGLVQPGGSLRLSCAASGFTFSRYFMGWVRQAPGKGLEWVSSIYSSGGYTSYADSVKGRFTISRDNSKNTLYLQMNSLRAEDTAVYYCARRWRDGTFDYWGQGTLVTVSS
VL: DIQMTQSPSSLSASIGDRVTISCRASQSVREYLNWYQQKPGKAPKLLIFAASSLQSGVPSRFSGSGSGTDFTLTISSLQPEDFATYYCQQSYSTRFTFGPGTKVDIK
binding [1]: binds | binding [2]: binds
